The values that follow come from article PMC4682924.

Chains of the proteins cited; added tags and fusions are not shown.
UniProt Q64303: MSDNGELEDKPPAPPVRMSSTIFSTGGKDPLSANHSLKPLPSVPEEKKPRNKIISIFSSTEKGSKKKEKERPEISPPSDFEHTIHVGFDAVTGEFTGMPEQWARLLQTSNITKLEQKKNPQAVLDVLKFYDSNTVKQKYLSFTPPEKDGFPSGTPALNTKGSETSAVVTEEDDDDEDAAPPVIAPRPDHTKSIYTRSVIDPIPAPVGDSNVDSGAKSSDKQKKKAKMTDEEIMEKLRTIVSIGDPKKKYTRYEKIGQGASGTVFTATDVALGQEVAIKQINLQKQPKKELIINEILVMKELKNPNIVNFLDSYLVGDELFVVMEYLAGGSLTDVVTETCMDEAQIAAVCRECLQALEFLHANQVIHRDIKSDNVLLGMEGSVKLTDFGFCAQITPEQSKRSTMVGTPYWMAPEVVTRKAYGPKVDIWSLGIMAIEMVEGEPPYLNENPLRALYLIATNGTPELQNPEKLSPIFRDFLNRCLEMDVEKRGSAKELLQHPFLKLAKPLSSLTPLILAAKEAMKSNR
UniProt P35465: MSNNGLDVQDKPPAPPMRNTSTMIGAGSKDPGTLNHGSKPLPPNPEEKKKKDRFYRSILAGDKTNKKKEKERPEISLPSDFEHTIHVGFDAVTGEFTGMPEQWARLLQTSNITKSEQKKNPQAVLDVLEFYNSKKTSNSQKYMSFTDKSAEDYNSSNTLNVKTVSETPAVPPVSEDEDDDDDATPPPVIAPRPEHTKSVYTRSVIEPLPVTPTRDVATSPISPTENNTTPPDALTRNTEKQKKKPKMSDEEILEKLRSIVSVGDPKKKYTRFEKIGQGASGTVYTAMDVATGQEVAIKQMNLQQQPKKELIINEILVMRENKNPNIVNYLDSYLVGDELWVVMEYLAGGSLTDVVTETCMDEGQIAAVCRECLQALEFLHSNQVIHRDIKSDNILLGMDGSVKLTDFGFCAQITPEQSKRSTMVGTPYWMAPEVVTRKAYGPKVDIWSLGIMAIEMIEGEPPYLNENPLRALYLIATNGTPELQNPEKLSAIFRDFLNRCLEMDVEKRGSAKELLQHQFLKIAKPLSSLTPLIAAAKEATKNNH
UniProt Q4G017: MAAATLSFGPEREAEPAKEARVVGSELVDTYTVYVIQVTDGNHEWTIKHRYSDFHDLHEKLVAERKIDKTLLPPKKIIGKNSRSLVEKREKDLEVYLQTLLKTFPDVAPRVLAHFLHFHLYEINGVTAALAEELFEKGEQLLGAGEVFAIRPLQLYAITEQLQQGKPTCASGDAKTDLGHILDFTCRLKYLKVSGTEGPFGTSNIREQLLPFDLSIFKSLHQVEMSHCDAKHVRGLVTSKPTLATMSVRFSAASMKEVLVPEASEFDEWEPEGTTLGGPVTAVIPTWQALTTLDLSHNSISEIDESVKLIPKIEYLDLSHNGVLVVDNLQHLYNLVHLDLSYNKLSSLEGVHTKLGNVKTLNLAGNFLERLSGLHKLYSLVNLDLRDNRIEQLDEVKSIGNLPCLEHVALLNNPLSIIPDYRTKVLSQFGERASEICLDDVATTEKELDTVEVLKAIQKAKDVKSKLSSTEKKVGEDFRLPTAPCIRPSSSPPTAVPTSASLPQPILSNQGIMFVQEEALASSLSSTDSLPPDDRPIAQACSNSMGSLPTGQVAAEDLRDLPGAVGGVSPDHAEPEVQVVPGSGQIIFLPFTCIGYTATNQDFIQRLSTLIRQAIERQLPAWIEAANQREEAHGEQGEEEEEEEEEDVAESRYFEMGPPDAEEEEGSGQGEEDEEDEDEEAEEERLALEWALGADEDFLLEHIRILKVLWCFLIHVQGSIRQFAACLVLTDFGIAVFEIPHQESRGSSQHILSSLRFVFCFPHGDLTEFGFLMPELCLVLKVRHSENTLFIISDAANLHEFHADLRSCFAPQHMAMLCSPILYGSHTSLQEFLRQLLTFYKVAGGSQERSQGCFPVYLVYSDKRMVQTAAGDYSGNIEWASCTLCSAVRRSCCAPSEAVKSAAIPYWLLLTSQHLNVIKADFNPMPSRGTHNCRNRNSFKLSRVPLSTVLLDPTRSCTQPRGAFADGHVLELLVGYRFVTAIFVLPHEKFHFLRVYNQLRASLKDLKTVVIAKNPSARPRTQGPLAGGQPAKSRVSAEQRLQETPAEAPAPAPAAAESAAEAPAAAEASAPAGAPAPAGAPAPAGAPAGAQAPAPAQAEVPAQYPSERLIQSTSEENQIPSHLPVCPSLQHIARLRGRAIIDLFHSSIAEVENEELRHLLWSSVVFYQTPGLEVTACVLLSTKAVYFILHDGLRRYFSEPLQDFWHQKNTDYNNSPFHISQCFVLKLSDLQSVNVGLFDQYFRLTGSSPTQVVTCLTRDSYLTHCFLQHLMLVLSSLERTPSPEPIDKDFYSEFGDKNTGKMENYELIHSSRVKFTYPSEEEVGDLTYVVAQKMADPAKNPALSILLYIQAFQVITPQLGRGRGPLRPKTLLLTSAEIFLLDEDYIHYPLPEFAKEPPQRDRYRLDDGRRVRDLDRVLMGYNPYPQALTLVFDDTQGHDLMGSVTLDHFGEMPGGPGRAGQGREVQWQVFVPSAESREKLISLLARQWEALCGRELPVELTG

Results are given in words; binding and its absence hold for the method and conditions named. Binding seen in cells or lysates may run through a third protein. Some entries that bind do so weakly or less than the wild type.

Experiment [1] has as its target p21-activated kinase 2 (rat (endogenous in rat cortical neurons)) (UniProt Q64303). The experiment is described as follows: co-IP; endogenous proteins; rat cortical neuron lysates (500 μl, 3 μg/μl) in RIPA lysis buffer with protease and phosphatase inhibitors, incubated with anti-Nischarin, anti-PAK1 or anti-PAK2 antibody at 4°C for 6 h, Protein G-Sepharose beads 2 h, washed three times; western blot; IgG as negative control. On the technique in general: In western blotting, separated proteins are transferred to a membrane and probed.

Experiment [2] concerns the target p21-activated kinase 1 (rat (endogenous in rat cortical neurons)) (UniProt P35465). The experiment is described as above.

Regarding Nischarin (from UniProt Q4G017 1-1502), the binding entry in experiment [1] and in experiment [2] was “binds” each time.
